About 5,400 (1.8%) of roughly 300,000 compounds were called active. The inconclusive results got no clear call from the source; some entries with a clear call stand among them for comparison. Calls come from the whole dose curve; tested in HEK293 cells. Where the call is inconclusive, the potency comes from a doubtful curve fit.
Assay: qHTS for inhibitors of binding or entry into cells for Marburg Virus
Conditions: Marburg virus pseudotyped entry inhibition, cell reporter; activity change, negative = inhibition: at 37.8 µM (top of the series) unless noted
% is set by controls: 0 for no effect and ±100 for the full control effect; potency is the fitted concentration of half-maximal effect.

Compound | Potency | activity change, negative = inhibition
CC(C)(CN1CCCC1)NS(=O)(=O)c1ccc(Cl)cc1 | inconclusive: 1.58 µM [activator, partial curve, poor fit] | 
CCOC(=O)/C(C#N)=N/Nc1c(C)n(C)n(-c2ccccc2)c1=O |  | inactive: 7.42% [at 46.1 µM]
COc1cccc(NC(=O)c2nn(C34CC5CC(CC(C5)C3)C4)cc2[N+](=O)[O-])c1 | inconclusive: 20 µM [inhibitor, partial curve, poor fit] | 
COCCNCCCOc1ccc(C(C)(C)c2ccccc2)cc1 | inconclusive: 29.1 µM [inhibitor, single point] | 
COc1ccccc1Nc1nc(NCc2ccco2)c2ccccc2n1 | inconclusive: 35.5 µM [inhibitor, single point] | 
O=C(OCn1ncc(Cl)c(Cl)c1=O)c1ccccc1Cl | active: 4.61 µM | 
COc1ccc(C(=O)NC2CCN(C(=O)NCc3ccccc3)CC2)cc1 |  | inactive: 11.2% [at 46.1 µM]
CN(C)S(=O)(=O)c1cccc(C(=O)NCCc2ccccc2)c1 | inconclusive: 7.94 µM [inhibitor, partial curve, poor fit] | 
Cc1cc(NC(=O)c2ccc3c(c2)C(=O)N(C(C)(C)C)C3=O)no1 | inconclusive: 35.5 µM [activator, single point] | 
O=[N+]([O-])c1ccc(Oc2cccc3cccnc23)c(Cl)c1 | inconclusive: 1.26 µM [activator, single point] | 
[N-]=[N+]=NC(c1ccccc1)c1nc2ccccc2[nH]c1=O (centres undefined) | inconclusive: 0.316 µM [inhibitor, partial curve, poor fit] | 
Cc1ccc(C(=O)Nc2ccc3c(c2)ncn3C)cc1 | inconclusive: 11.2 µM [inhibitor, partial curve] | 
CN(C)CCN(Cc1cc2cc3c(cc2[nH]c1=O)OCO3)C(=S)NCC1CCCO1 (centres undefined) | inconclusive: 6.31 µM [inhibitor, single point] | 
COC(=O)c1ccc(NC(=O)c2cn(-c3ccccc3)nc2-c2ccncc2)cc1 | active: 12.6 µM | 
CCOc1ccc(-c2cn3c(n2)sc2cc(C(=O)NCCc4ccc(OC)c(OC)c4)ccc23)cc1 | inconclusive: 5.01 µM [inhibitor, single point] | 
CC1CCN(C(=O)C2CCN(S(=O)(=O)c3cccc4nonc34)CC2)CC1 |  | inactive: -0.609%
CC(Oc1ccccc1)C(=O)N1CCCc2ccccc21 (centres undefined) | inconclusive: 1.3 µM [inhibitor, single point] | 
COc1ccc(-n2c3c(cc(C(=O)NNc4ccccc4C)c2=O)C(=O)CC(C)(C)C3)cc1 | inconclusive: 7.08 µM [inhibitor, partial curve, poor fit] | 
Cc1ccc(Sc2nnc(-c3ccccc3)cc2C#N)cc1 |  | inactive: 10.2%
CCOC(=O)C1=C(C)NC(C)=C(C(=O)OCC)C1c1ccc(O)cc1 | inconclusive: 10 µM [inhibitor, partial curve, poor fit] | 
O=C1CC(c2ccc(F)cc2)Cc2nc(N3CCN(c4ccccc4)CC3)ncc21 (centres undefined) |  | inactive: 14.9%
Cc1ccc(S(=O)(=O)N(CC(=O)N/N=C/c2ccco2)Cc2ccccc2)cc1 | inconclusive: 6.51 µM [inhibitor, partial curve] | 
Cn1c2ccccc2c(=O)c2c(=O)n(-c3ccccc3)c(C3CCCCC3)nc21 | inconclusive: 3.98 µM [activator, single point] | 

4 entries from above, as comma-separated lines.
Compound,Potency,"activity change, negative = inhibition"
O=C(OCn1ncc(Cl)c(Cl)c1=O)c1ccccc1Cl,active: 4.61 µM,
COc1ccc(C(=O)NC2CCN(C(=O)NCc3ccccc3)CC2)cc1,,inactive: 11.2% [at 46.1 µM]
CN(C)S(=O)(=O)c1cccc(C(=O)NCCc2ccccc2)c1,"inconclusive: 7.94 µM [inhibitor, partial curve, poor fit]",
Cc1cc(NC(=O)c2ccc3c(c2)C(=O)N(C(C)(C)C)C3=O)no1,"inconclusive: 35.5 µM [activator, single point]",

(continued)

Compound | Potency | activity change, negative = inhibition
CCc1c(C)nc2ncnn2c1N1CCC(C(=O)Nc2ccc(C)cc2)CC1 | inconclusive: 16.4 µM [inhibitor, partial curve, poor fit] | 
CN(C)S(=O)(=O)c1ccc(N2CCN(S(=O)(=O)c3ccc(F)cc3)CC2)c(Cl)c1 | inconclusive: 29.1 µM [inhibitor, single point] | 
O=C(CN1C(=O)c2ccccc2C1=O)Nc1ccccc1N1CCOCC1 | inconclusive: 10 µM [activator, partial curve] | 
COc1cccc(CNc2nc(C(F)(F)F)nc3ccccc23)c1 | inconclusive: 9.2 µM [inhibitor, partial curve] | 
Cc1nc2ccc(NC(=O)Cc3cccc(F)c3)cc2s1 | inconclusive: 5.62 µM [activator, single point] | 
O=C(COc1ccccc1)Nc1ccc(N2CCCCC2)cc1 | inconclusive: 35.5 µM [activator, single point] | 
O=c1ccc(-c2nc3cc(Cl)ccc3n2Cc2ccccc2)c[nH]1 | inconclusive: 6.31 µM [inhibitor, single point] | 
CC(CNC(=O)CCc1ccccc1)NC(=O)CCc1ccccc1 (centres undefined) |  | inactive: 7.43% [at 46.1 µM]
COc1cc(Cl)c(C)cc1NC(=O)CCN1C(=O)NC(C)(C)C1=O |  | inactive: 15.5% [at 46.1 µM]
Cc1cc(C2C(C#N)=C(N)OC3=C2C(=O)CC(C)(C)C3)c(C)s1 (centres undefined) | inconclusive: 0.631 µM [inhibitor, full curve, poor fit] | 
O=C(CCn1nc(-c2ccc(Cl)cc2)c2ccccc2c1=O)Nc1ccc(OC(F)(F)F)cc1 |  | inactive: -2.46% [at 46.1 µM]
Cc1oc2ccc(O)cc2c1C(=O)c1ccccc1 |  | inactive: -9.54% [at 46.1 µM]
Clc1ccc2nc3c(c(-c4ccccc4)c2c1)CNCC3 | inconclusive: 2.31 µM [inhibitor, partial curve, poor fit] | 
Cc1ccsc1C(=O)N/N=C/c1ccc([N+](=O)[O-])cc1 | inconclusive: 0.146 µM [activator, full curve, poor fit] | 
c1coc(CN(Cc2ccco2)c2ncnc3c2oc2ccccc23)c1 | inconclusive: 20.6 µM [inhibitor, single point] | 
Cc1cc(NC(=O)CCCN2C(=O)/C(=C\c3cccs3)SC2=S)no1 | inconclusive: 0.631 µM [inhibitor, single point] | 
O=C(COc1ccccc1[N+](=O)[O-])Nc1cccc(S(=O)(=O)N2CCCC2)c1 | inconclusive: 8.91 µM [inhibitor, partial curve, poor fit] | 
O=C(COC(=O)Cc1ccc(F)cc1)Nc1cc(S(=O)(=O)N2CCOCC2)ccc1N1CCCC1 | inconclusive: 5.01 µM [activator, partial curve, poor fit] | 
Cc1cc(C)n2nc(C(F)(F)F)c(-c3ccccc3)c2n1 | inconclusive: 6.31 µM [activator, single point] | 
c1ccc2sc(NN=C3CCCCCC3)nc2c1 | inconclusive: 2.24 µM [activator, partial curve, poor fit] | 
CC(C)n1cc(NC(=O)C2CC(c3cccc(Br)c3)=NO2)cn1 (centres undefined) | inconclusive: 35.5 µM [inhibitor, single point] | 
CC(c1ccccc1)(c1ccccc1)c1ccncc1 | inconclusive: 4.47 µM [activator, single point] | 
COc1ccc(NC(=O)C2CC(=O)N/C(=N/N=C/c3ccccc3)S2)cc1 (centres undefined) | inconclusive: 12.6 µM [inhibitor, single point] | 

Compound | Potency | activity change, negative = inhibition
O=C(Nc1ncccn1)C12CC3CC(CC(C3)C1)C2 |  | inactive: 9.08% [at 46.1 µM]
CCNc1nc(SCCOc2ccc(C)cc2)nc(N(C)C)n1 | inconclusive: 29.1 µM [inhibitor, single point] | 
COc1cc(C(=O)O/N=C(\N)c2cccc([N+](=O)[O-])c2)cc(OC)c1OC |  | inactive: -0.849%
O=C(Nc1cccc(Cl)c1N1CCCC1)c1ccc([N+](=O)[O-])o1 |  | inactive: -23.8%
Cc1cccc(-n2nnc3c(=O)n(Cc4ccccn4)cnc32)c1 |  | inactive: 17.6% [at 46.1 µM]
Cc1cc(C)nc(SCCS(=O)(=O)Cc2ccccc2)n1 |  | inactive: -16.1%
COc1cc(C(=O)c2ccccc2C(=O)O)c(OC)c2c1CCCC2 | inconclusive: 3.98 µM [activator, full curve, poor fit] | 
Clc1ccc(-c2nc3ccc(Cl)cn3c2CN2CCCCC2)cc1 | inconclusive: 15.8 µM [inhibitor, single point] | 
c1ccc(-c2ccc(-c3nc(-c4ccccn4)no3)cc2)cc1 | inconclusive: 0.73 µM [inhibitor, full curve, poor fit] | 
CCNC(=S)N/N=C/c1ccco1 |  | inactive: 16.3%
CCCCCCCCCS(=O)(=O)Nc1cc(C)ccn1 | inconclusive: 1.41 µM [activator, partial curve] | 
CCN1C(=O)/C(=c2\o/c(=C3\C=Cc4ccccc4N3CC)c(=O)n2CC)SC1=S | inactive | 
CN(c1ccc(C(=O)N2CCCCC2)cc1)S(=O)(=O)c1ccccc1 | inconclusive: 2.51 µM [inhibitor, full curve, poor fit] | 
CCCCN(CCCC)CCNC(=O)c1cn(C)c2ccc(S(=O)(=O)N3CCCC3)cc2c1=O | inactive | 
Cc1cccc(-c2nc(CN3CCCC(C(=O)NC4CCC(C)CC4)C3)c(C)o2)c1 (centres undefined) | inconclusive: 29.1 µM [inhibitor, single point] | 
Brc1cc2c(cc1/C=N/Nc1nc(N3CCCC3)nc(N3CCOCC3)n1)OCO2 |  | inactive: -40.5%
O=C(Nc1ccc(Cl)cc1)C(c1ccccc1)N(CCO)CCO (centres undefined) |  | inactive: 15.8%
O=C(COC(=O)Cc1cccc(C(F)(F)F)c1)Nc1ccc2c(c1)OCCO2 |  | inactive: 4.96%
CCCCC(=O)Oc1c(S(=O)(=O)c2ccccc2)c(C)nn1C(C)(C)C | inconclusive: 35.5 µM [inhibitor, single point] | 
Cc1ccc(CNc2ccc(-c3nc(-c4ccccn4)no3)cc2[N+](=O)[O-])cc1 |  | inactive: -8.39% [at 46.1 µM]
Cc1cc(C)c2cc(C(=O)N3CCN(c4ncccc4C(F)(F)F)CC3)[nH]c2c1 | inconclusive: 8.91 µM [inhibitor, partial curve] | 
CC(C)CC[n+]1ccn(C2=C([O-])c3ccccc3C(=O)/C2=N\S(=O)(=O)c2ccccc2)c1 | inconclusive: 25.9 µM [inhibitor, single point] | 
O=C(Nc1nccs1)c1ccc2c(c1)OCO2 | inconclusive: 3.55 µM [activator, single point] | 

Reference: PubChem BioAssay AID540276 (National Center for Advancing Translational Sciences (NCATS), 2011)
